# Measurements as given in PubChem BioAssay (NCATS).
# The chains behind the UniProt entries cited, without tags or fusion partners. Where a name states a change or a piece, a line headed by the entry shows the natural chain unless it says otherwise.
# UniProt A8B2U2: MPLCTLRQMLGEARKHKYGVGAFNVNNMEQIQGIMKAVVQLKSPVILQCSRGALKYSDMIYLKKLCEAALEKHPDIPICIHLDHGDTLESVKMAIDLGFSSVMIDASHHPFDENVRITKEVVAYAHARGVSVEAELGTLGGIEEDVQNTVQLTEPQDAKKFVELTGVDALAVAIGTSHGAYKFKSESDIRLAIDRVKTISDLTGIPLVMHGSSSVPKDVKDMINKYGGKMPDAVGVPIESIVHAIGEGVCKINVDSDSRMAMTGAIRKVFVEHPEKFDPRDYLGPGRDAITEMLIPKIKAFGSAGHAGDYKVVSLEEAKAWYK
# UniProt P00883: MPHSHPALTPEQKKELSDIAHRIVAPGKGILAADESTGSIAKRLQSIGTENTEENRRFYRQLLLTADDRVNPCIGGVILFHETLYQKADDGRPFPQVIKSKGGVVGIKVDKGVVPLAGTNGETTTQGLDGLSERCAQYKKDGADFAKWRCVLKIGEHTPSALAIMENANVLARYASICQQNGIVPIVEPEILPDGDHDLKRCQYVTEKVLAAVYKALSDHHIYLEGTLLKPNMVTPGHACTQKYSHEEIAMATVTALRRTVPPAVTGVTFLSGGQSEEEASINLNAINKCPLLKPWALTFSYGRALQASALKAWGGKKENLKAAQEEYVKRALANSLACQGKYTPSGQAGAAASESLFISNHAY
# The inconclusive results got no clear call from the source; some entries with a clear call stand among them for comparison. For part of these data: Where the call is inconclusive, the potency comes from a doubtful curve fit. The source made the active and inactive calls. Calls come from the whole dose curve; as a rule, active = well fitted curve in the direction sought with a large enough effect; inconclusive = small, poorly fitted or top-dose-only effect, or another doubt; inactive = no such curve, though single readings can be large; an effect the other way counts as inactive or inconclusive.
# How the values were obtained:
# [1] = qHTS Assay for Inhibitors of Fructose-1,6-bisphosphate Aldolase from Giardia Lamblia: Giardia lamblia growth inhibition (AID 2785); details: Giardia lamblia trophozoite growth inhibition; activity change, negative = inhibition: at 57.5 µM (top of the series); note: nearly all actives have a fitted effect of over 70% in size; note: potency is the fitted concentration of half-maximal effect; for activity change, negative = inhibition: % is set by controls: 0 for no effect and ±100 for the full control effect
# In short: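 Whole-parasite growth test: Giardia WB trophozoites in TYI-S-33 (pH 7.0), 100 per well, incubated 48 h at 37C with compound. ATP content was read by ATPlite luminescence.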
# [2] = molecular target: Fructose-bisphosphate aldolase (Giardia intestinalis (strain ATCC 50803 / WB clone C6)) (UniProt A8B2U2); experiment: qHTS Assay for Inhibitors of Fructose-1,6-bisphosphate Aldolase from Giardia Lamblia: Primary screen confirmation (AID 2787); details: purified Giardia aldolase enzyme activity; series mostly up to 57.5 µM;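 for activity change, negative = inhibition: aldolase product measured through coupled diaphorase step turning resazurin into fluorescent resorufin; % is set by controls: 0 for no effect and ±100 for the full control effect; nearly all actives have a fitted effect of over 45% in size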
# In short: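 FBPA (40 nM in enzyme reagent, with 30 uM ZnCl2) was preincubated 10 min at RT with compound up to 57.5 uM final. Substrate plus coupled detection system was then added, and fluorescence (525/598 nm) was read after 20 min at RT.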
# [3] = qHTS Assay for Inhibitors of Fructose-1,6-bisphosphate Aldolase from Giardia Lamblia: Mammalian cellular toxicity (AID 2786); details: mammalian cell viability counter-screen; series mostly up to 57.5 µM;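 note: compound exposure lasted 48 h before reading; nearly all actives have a fitted effect of over 60% in size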; note: potency is the fitted concentration of half-maximal effect
# In short: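 Mammalian cytotoxicity surrogate: Chinese hamster ovary cells exposed to compound for 48 h at 37 °C. Cellular ATP then measured with ATPlite reagent, 20 min incubation.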
# [4] = qHTS Assay for Inhibitors of Fructose-1,6-bisphosphate Aldolase from Giardia Lamblia: Coupling assay counterscreen confirmation (AID 2795); details: GAPDH coupling enzyme counterscreen, biochemical; series mostly up to 57.5 µM
# In short: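 Fluorescence (excitation 525 nm, emission 598 nm) reports signal from the coupled glyceraldehyde-3-phosphate dehydrogenase system with an AmpLite Red detection kit. Compounds up to 57.5 uM final were incubated 10 min, then 20 min after substrate addition, both at room temperature.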
# [5] = molecular target: Fructose-bisphosphate aldolase A (Oryctolagus cuniculus) (UniProt P00883); experiment: qHTS Assay for Inhibitors of Fructose-1,6-bisphosphate Aldolase from Giardia Lamblia: Rabbit FBPA Selectivity (AID 2794); details: Rabbit muscle FBPA enzyme inhibition, selectivity counter-screen; series mostly up to 57.5 µM
# In short: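 Each compound, dosed at up to 57.5 uM final, was first mixed with coupling enzyme reagent for 10 min. Aldolase substrate and the AmpLite Red coupling system then ran 20 min at RT before a single fluorescence read.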
smiles,measurement,setting,value
CN(CCC#N)C(=S)NC(=O)c1ccc(S(=O)(=O)N2CCOCC2)cc1,Potency,[1],inactive
same,Potency,[2],inactive
C=CCn1c(SCC(=O)c2ccc(O)c(O)c2)nnc1-c1ccccc1OC,Potency,[1],"inconclusive: 8.91 µM [inhibitor, single point]"
same,Potency,[3],"inconclusive: 63.1 µM [inhibitor, single point]"
C/C(=N\Nc1ccc2nncn2n1)c1ccccn1,Potency,[1],"inconclusive: 31.6 µM [inhibitor, partial curve]"
same,Potency,[3],"inconclusive: 25.1 µM [inhibitor, partial curve]"
same,Potency,[4],"inconclusive: 79.4 µM [inhibitor, partial curve]"
COc1cccc(N2CCN(Cc3ccco3)CC2)c1,Potency,[1],"inconclusive: 56.2 µM [inhibitor, partial curve, poor fit]"
same,Potency,[2],inactive
CCc1nnc(N/N=C/c2cccs2)n1N,Potency,[1],"inconclusive: 31.6 µM [inhibitor, partial curve, poor fit]"
same,Potency,[3],"inconclusive: 79.4 µM [inhibitor, single point]"
same,Potency,[2],active: 12.6 µM
same,Potency,[5],active: 12.6 µM
same,Potency,[4],active: 12.6 µM
CCOc1cc(/C=C2\SC(N)=NC2=O)ccc1O,"activity change, negative = inhibition",[1],inactive: -13.5% [at 10.4 µM]
same,Potency,[2],inactive
CCCC(=O)NC(c1ccco1)c1cc([N+](=O)[O-])c2cccnc2c1O (configuration not stated),Potency,[1],"inconclusive: 79.4 µM [inhibitor, single point]"
same,Potency,[3],inactive
same,Potency,[4],"inconclusive: 79.4 µM [inhibitor, single point]"
CC(/C=N/NC(=O)c1ccccn1)=C\c1ccco1,Potency,[1],"inconclusive: 44.7 µM [inhibitor, single point]"
same,Potency,[3],active: 25.1 µM
same,Potency,[2],"inconclusive: 12.6 µM [inhibitor, partial curve]"
same,Potency,[4],"inconclusive: 79.4 µM [inhibitor, single point]"
Nc1c2c(nc3ccc(Br)cc13)N(C1CCCCC1)CC2,Potency,[1],active: 5.01 µM
same,Potency,[3],inactive
O=C(N/N=C/c1ccccn1)c1cc(-c2ccccc2Cl)n[nH]1,Potency,[1],inactive
same,Potency,[2],inactive

# Some of the entries above in a different format:
smiles	measurement	setting	value
CN(CCC#N)C(=S)NC(=O)c1ccc(S(=O)(=O)N2CCOCC2)cc1	Potency	[1]	inactive
same	Potency	[2]	inactive
